Measured values from the supplement of paper PMC10849652.
The other results are listed elsewhere or left out.

By UniProt entry, the sequences of proteins in these tests, tags left out. Where a name states a change or a piece, a line headed by the entry shows the natural chain unless it says otherwise.
UniProt P55058, whole entry, looked up: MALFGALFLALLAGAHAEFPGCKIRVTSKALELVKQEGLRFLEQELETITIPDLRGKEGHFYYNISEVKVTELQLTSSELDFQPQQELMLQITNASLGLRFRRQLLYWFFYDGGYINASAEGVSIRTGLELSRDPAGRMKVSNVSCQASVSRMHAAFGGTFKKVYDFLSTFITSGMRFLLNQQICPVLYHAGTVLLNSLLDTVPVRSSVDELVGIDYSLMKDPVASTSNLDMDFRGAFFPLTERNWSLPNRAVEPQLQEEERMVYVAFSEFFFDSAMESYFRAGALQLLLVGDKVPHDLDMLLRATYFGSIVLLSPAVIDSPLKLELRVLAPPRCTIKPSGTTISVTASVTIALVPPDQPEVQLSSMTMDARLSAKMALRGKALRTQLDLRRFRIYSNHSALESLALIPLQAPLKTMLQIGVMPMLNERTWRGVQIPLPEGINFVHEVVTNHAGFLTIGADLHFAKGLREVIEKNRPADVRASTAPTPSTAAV
UniProt O94903: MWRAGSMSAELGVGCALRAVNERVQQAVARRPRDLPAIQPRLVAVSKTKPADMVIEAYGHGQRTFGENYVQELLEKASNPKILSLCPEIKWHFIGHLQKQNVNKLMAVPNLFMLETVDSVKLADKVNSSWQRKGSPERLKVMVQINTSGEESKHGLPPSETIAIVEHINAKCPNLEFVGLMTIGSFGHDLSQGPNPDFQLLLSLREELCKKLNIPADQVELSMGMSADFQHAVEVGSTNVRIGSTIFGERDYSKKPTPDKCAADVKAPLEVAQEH
UniProt Q9GZS1, whole entry, looked up: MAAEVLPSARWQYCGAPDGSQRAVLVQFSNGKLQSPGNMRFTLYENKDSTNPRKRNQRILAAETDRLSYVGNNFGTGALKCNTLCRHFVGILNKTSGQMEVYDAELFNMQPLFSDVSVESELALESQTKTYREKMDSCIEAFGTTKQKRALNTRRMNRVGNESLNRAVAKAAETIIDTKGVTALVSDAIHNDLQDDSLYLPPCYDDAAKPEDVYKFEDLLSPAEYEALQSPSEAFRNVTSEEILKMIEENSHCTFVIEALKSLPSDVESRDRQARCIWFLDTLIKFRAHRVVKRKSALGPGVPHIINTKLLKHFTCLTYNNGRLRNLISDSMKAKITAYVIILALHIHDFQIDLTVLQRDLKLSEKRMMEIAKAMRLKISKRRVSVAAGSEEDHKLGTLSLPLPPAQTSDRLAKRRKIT
UniProt Q6T4P5: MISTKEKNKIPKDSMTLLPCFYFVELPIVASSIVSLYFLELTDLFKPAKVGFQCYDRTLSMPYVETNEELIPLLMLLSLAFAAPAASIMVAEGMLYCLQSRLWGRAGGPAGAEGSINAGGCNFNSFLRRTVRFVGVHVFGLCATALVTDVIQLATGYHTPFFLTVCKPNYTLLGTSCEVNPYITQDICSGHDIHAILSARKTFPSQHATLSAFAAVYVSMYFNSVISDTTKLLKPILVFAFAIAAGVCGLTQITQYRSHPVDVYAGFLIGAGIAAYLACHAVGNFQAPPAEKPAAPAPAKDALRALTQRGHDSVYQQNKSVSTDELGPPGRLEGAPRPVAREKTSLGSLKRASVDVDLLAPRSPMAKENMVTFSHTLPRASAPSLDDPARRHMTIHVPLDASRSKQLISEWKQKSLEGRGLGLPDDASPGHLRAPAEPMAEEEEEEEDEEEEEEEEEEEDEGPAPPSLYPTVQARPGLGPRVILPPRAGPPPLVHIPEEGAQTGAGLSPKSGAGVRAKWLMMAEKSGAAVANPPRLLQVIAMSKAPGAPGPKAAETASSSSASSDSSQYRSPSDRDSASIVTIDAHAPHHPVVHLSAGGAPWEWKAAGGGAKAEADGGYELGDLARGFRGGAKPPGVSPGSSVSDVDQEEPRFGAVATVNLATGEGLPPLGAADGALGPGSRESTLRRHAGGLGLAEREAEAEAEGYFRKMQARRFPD
UniProt Q9Y6A1: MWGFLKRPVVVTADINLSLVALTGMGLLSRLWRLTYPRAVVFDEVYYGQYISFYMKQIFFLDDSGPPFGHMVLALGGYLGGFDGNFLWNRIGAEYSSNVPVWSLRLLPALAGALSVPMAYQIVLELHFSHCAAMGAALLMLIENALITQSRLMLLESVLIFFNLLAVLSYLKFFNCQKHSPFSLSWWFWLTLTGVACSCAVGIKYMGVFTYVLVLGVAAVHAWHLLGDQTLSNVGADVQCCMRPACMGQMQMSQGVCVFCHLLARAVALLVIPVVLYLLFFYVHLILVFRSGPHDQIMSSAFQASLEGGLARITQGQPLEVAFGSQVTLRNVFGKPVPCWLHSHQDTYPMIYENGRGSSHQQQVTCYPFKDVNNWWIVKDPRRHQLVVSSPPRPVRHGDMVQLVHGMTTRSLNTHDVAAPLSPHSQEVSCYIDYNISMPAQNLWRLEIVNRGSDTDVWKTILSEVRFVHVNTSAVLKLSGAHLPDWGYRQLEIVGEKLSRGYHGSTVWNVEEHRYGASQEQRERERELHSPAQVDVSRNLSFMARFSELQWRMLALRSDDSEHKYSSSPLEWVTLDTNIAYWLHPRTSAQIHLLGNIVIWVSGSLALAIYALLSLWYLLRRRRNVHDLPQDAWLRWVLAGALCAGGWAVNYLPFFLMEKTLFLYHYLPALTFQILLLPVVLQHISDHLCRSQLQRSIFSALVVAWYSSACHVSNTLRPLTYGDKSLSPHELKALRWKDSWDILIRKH
UniProt Q8NAT1: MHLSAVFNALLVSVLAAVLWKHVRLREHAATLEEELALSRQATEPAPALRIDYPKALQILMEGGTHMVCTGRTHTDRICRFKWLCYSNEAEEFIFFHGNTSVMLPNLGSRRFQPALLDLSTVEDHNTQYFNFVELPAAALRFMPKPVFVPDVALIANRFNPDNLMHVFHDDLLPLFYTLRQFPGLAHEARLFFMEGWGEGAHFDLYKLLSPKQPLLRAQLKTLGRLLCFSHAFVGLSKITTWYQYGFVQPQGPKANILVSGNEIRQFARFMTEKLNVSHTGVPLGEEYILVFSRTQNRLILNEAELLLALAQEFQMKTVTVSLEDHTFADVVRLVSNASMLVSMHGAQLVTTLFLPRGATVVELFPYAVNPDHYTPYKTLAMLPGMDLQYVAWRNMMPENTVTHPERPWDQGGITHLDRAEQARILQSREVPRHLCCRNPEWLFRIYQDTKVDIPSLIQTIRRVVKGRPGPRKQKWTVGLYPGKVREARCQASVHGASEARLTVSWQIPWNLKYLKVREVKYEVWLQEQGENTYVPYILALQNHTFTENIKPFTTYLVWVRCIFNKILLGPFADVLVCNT
UniProt P45877: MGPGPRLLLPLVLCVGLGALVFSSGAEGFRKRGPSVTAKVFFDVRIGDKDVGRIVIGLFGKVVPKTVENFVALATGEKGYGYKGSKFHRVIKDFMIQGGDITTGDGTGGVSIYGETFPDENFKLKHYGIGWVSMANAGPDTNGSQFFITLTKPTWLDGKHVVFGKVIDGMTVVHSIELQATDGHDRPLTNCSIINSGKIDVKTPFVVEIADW
UniProt O75145: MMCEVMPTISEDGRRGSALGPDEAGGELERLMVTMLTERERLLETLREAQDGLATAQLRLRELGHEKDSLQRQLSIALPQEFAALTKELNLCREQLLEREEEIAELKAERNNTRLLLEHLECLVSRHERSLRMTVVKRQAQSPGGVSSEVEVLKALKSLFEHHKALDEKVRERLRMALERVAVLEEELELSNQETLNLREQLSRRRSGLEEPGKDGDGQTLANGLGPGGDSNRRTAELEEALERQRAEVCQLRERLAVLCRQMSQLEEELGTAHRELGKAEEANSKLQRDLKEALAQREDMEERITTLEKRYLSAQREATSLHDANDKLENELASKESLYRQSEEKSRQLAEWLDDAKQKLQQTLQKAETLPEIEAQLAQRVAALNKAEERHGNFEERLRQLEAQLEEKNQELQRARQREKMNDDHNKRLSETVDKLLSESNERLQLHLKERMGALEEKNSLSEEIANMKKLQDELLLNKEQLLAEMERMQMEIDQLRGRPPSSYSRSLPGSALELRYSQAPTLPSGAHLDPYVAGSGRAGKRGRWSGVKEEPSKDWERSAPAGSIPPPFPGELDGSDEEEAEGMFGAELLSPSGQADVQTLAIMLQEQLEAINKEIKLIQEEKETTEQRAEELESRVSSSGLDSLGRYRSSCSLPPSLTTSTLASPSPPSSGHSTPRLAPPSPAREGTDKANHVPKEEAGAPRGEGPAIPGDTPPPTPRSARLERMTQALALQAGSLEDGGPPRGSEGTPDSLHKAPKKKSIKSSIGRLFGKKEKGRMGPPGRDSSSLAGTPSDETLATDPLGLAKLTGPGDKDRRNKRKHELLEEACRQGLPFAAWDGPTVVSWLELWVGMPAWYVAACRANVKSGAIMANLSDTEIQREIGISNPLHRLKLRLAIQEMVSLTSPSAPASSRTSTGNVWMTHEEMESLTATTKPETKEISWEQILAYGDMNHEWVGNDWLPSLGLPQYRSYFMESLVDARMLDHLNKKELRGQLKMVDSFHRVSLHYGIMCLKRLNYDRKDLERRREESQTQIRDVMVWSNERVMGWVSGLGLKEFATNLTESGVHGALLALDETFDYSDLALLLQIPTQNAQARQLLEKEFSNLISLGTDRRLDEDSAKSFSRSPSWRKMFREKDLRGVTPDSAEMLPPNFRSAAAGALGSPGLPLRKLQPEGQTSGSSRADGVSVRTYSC
UniProt Q9H9Y6, whole entry, looked up: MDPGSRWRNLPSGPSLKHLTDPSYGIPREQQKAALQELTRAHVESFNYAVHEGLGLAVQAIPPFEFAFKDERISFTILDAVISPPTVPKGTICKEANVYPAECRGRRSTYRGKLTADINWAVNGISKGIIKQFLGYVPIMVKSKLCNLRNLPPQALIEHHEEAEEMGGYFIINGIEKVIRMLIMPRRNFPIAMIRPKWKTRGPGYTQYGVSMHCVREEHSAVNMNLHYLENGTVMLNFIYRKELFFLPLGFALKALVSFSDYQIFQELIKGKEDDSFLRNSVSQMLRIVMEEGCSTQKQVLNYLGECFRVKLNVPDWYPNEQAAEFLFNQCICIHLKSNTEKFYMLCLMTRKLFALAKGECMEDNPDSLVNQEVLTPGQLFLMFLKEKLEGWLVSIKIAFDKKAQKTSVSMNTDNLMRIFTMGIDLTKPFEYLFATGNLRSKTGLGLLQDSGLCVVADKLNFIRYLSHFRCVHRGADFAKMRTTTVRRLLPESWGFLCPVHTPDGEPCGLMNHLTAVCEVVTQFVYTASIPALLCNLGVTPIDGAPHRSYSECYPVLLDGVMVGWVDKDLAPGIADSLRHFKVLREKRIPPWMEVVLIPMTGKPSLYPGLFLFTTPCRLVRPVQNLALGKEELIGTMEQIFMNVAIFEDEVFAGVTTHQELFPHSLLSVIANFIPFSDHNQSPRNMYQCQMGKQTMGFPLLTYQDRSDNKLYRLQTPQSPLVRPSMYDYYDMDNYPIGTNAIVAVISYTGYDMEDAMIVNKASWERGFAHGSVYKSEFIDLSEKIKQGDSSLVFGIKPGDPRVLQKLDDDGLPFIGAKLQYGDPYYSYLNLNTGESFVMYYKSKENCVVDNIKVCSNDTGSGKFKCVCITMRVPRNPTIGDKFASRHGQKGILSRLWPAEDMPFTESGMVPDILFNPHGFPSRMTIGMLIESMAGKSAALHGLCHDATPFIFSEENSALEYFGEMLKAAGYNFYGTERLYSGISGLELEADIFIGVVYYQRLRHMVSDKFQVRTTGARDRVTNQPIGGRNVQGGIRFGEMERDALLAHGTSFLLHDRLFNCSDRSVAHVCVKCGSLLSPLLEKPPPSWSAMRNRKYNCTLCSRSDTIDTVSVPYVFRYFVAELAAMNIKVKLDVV
UniProt Q9NRY6: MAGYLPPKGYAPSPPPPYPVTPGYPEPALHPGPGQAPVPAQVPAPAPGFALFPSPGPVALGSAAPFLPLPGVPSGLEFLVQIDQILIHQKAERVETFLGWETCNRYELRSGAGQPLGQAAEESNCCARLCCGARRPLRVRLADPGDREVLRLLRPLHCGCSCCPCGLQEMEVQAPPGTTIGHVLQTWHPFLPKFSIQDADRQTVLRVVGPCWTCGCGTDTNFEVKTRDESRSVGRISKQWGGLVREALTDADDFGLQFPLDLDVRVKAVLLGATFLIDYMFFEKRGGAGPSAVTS

Tests used:
Test in all cases: log2 fold change, soluble protein after heating vs DMSO (PISA); higher = thermal stabilisation; K562 cells, 10 uM, 30 min; active = over 0.2 and 3.5 SD of the protein, either way, in both replicates (recomputed)
[1] = compound: CC1=C(SC2=C1C(=N[C@H](C3=NN=C(N32)C)CC(=O)N)C4=CC=C(C=C4)Cl)C
Method in brief: (§1)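 Values are thermal stability changes relative to control samples and are taken from duplicates. They are stated as log2 fold changes. Before quantification by TMTpro 16plex LC-MS/MS with equalised channel sums, K562 cells at 2×10^6 cells/mL were treated with 10 μM compound for 30 min, heated in aliquots for 3 min across 48°C-58°C, pooled, extracted in PBS with 0.5% NP-40 at 4°C, and centrifuged at 21,000xg for 90 min to give the soluble supernatant.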

[2] = compound: CC1=C2C(=CC=C1)N=C(N(C2=O)C3=CC=CC=C3C)CN4C=NC5=C(N=CN=C54)N
Method in brief: as §1

[3] = compound: c1ccc([C@@H]2C[C@H]2NC2CCNCC2)cc1
Method in brief: as §1

[4] = compound: C1=CC=C(C=C1)[C@H](COC2=CC3=C(C=C2)NC(=O)N3)NC(=O)C4=CC=CN(C4=O)CC5=CC(=C(C=C5)F)F
Method in brief: as §1

[5] = compound: Cc1sc2c(c1C)C(c1ccc(Cl)cc1)=N[C@@H](CC(=O)OC(C)(C)C)c1nnc(C)n1-2
Method in brief: as §1

Measured: log2 fold change

PLTP (UniProt P55058)
inactive: [1] 0.035 | [2] 0.16 | [3] 0.018

PMS2 (UniProt P54278)
inactive: [1] 0.056 | [2] 0.139 | [3] -0.05

PPIP5K2 (UniProt H0Y9S9)
inactive: [4] 0.036 | [1] 0.029 | [5] -0.106 | [3] -0.018

PLPBP (UniProt O94903)
inactive: [4] -0.093 | [1] 0.048 | [2] 0.066 | [5] -0.039 | [3] 0.017

POLR1E isoform 1 (UniProt Q9GZS1)
inactive: [2] -0.479

PLPPR3 isoform 3 (UniProt Q6T4P5)
inactive: [1] 0.003 | [3] 0.093

PNKD isoform 3 (UniProt Q8N490)
inactive: [4] 0.042 | [1] 0.019 | [2] 0.132 | [5] -0.08 | [3] 0.04

POLR1D (UniProt P0DPB5)
inactive: [4] 0.144 | [1] -0.021 | [5] 0.203 | [3] 0.051

PM20D2 (UniProt Q8IYS1)
inactive: [5] 0.032

POMT1 (UniProt Q9Y6A1)
inactive: [2] 0.107 | [5] 0.139

Two successive entries out of the list so far:
PNKD isoform 3 (UniProt Q8N490)
inactive: [4] 0.042 | [1] 0.019 | [2] 0.132 | [5] -0.08 | [3] 0.04

POLR1D (UniProt P0DPB5)
inactive: [4] 0.144 | [1] -0.021 | [5] 0.203 | [3] 0.051

The listing continues:

POMGNT2 (UniProt Q8NAT1)
inactive: [4] -0.132 | [1] -0.097 | [2] -0.05 | [3] 0.141

POF1B isoform 1 (UniProt Q8WVV4)
inactive: [4] 0.441 | [2] -0.304 | [5] -0.125

PPIC (UniProt P45877)
inactive: [4] 0.141 | [1] 0.018 | [3] -0.041

PPFIA3 (UniProt O75145)
inactive: [1] -0.133 | [3] -0.049

PORCN (UniProt Q9H237)
inactive: [1] 0.053 | [2] -0.01 | [3] -0.007

POLR1B isoform 3 (UniProt Q9H9Y6)
inactive: [1] -0.127 | [2] -0.093 | [5] 0.049 | [3] 0.029

PNKP (UniProt Q96T60)
inactive: [1] 0.107 | [2] 0.229 | [5] -0.02 | [3] -0.078

PLEKHJ1 (UniProt Q9NW61)
inactive: [1] -0.039 | [3] -0.075

PLXND1 (UniProt Q9Y4D7)
inactive: [4] -0.118 | [2] 0.243

POFUT1 (UniProt Q9H488)
inactive: [4] 0.046 | [1] -0.025 | [2] -0.055 | [5] 0.002 | [3] -0.046

PLSCR3 (UniProt Q9NRY6)
inactive: [1] -0.01 | [3] 0.239

PLGRKT (UniProt Q9HBL7)
inactive: [4] -0.02 | [1] 0.17 | [5] -0.082 | [3] -0.018
